Laboratory results reported in US9095578B2, “Adenylyl cyclases as novel targets for the treatment of infection by eukaryotic pathogens” (CORNELL RESEARCH FOUNDATION, INC., priority 2007, dated 2015).
Some entries share one result that the patent states for a list of compounds.

Test system: Trypanosoma brucei bloodstream form (trypomastigotes)
Test: growth of bloodstream form cells, cell density by Coulter Counter
Assay type: cell-based
Details: Bloodstream forms; tested 1 μM to 300 μM; HMI-9, 1% DMSO

Structure (SMILES) | concentration preventing growth
COc1cc(/C=N/NC(=O)CSc2nc3ccccc3[nH]2)ccc1O [KH7.15] | > 100 µM
O=C(CSc1nc2ccccc2[nH]1)N/N=C/c1ccccn1 [KH7.14] | > 100 µM
